# In the supplement of paper PMC8728848:
# This is one part of the list.
# Assays:
# Test in all cases: glycan array binding signal (z-score within array); higher = stronger binding
# Conditions in all cases: glycan notation: IUPAC condensed, linker removed
# [1] = target: Neu5Ac(a2-6)Gal(b1-4)GlcNAc(b1-2)Man(a1-3)[Neu5Ac(a2-3)Gal(b1-4)GlcNAc(b1-2)Man(a1-6)]Man(b1-4)GlcNAc(b1-4)GlcNAc
# In short: (§1)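 The binding signal is a Z-score computed within each array and averaged over linkers. Arrays of the same protein sequence at different concentrations or buffers were also averaged together. Data originate from 3228 arrays in the Consortium for Functional Glycomics database, kept only where the protein sequence was available.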
# [2] = target: Neu5Ac(a2-6)Gal(b1-4)GlcNAc(b1-2)Man(a1-3)[Neu5Ac(a2-6)Gal(b1-4)GlcNAc(b1-2)Man(a1-6)]Man(b1-4)GlcNAc(b1-4)GlcNAc
# In short: as §1
# [3] = target: Neu5Ac(a2-6)Gal(b1-4)GlcNAc(b1-2)Man(a1-3)[Neu5Ac(a2-6)Gal(b1-4)GlcNAc(b1-2)Man(a1-6)]Man(b1-4)GlcNAc(b1-4)[Fuc(a1-6)]GlcNAc
# In short: as §1
# [4] = target: Neu5Ac(a2-6)Gal(b1-4)GlcNAc(b1-2)Man(a1-6)Man(b1-4)GlcNAc(b1-4)GlcNAc
# In short: as §1
# [5] = target: Neu5Ac(a2-6)Gal(b1-4)GlcNAc(b1-2)Man(a1-6)[Gal(b1-4)GlcNAc(b1-2)Man(a1-3)]Man(b1-4)GlcNAc(b1-4)GlcNAc
# In short: as §1
# [6] = target: Neu5Ac(a2-6)Gal(b1-4)GlcNAc(b1-2)Man(a1-6)[GlcNAc(b1-2)Man(a1-3)]Man(b1-4)GlcNAc(b1-4)GlcNAc
# In short: as §1
# [7] = target: Neu5Ac(a2-6)Gal(b1-4)GlcNAc(b1-2)Man(a1-6)[Man(a1-3)]Man(b1-4)GlcNAc(b1-4)GlcNAc
# In short: as §1
# [8] = target: Neu5Ac(a2-6)Gal(b1-4)GlcNAc(b1-2)[Neu5Ac(a2-6)Gal(b1-4)GlcNAc(b1-4)]Man(a1-3)[GlcNAc(b1-4)][Neu5Ac(a2-6)Gal(b1-4)GlcNAc(b1-2)[Neu5Ac(a2-6)Gal(b1-4)GlcNAc(b1-6)]Man(a1-6)]Man(b1-4)GlcNAc(b1-4)GlcNAc
# In short: as §1
# [9] = target: Neu5Ac(a2-6)Gal(b1-4)GlcNAc(b1-2)[Neu5Ac(a2-6)Gal(b1-4)GlcNAc(b1-4)]Man(a1-3)[GlcNAc(b1-4)][Neu5Ac(a2-6)Gal(b1-4)GlcNAc(b1-4)Man(a1-6)]Man(b1-4)GlcNAc(b1-4)GlcNAc
# In short: as §1
# [10] = target: Neu5Ac(a2-6)Gal(b1-4)GlcNAc(b1-2)[Neu5Ac(a2-6)Gal(b1-4)GlcNAc(b1-6)]Man(a1-6)[Neu5Ac(a2-6)Gal(b1-4)GlcNAc(b1-2)Man(a1-3)][GlcNAc(b1-4)]Man(b1-4)GlcNAc(b1-4)GlcNAc
# In short: as §1
# [11] = target: Neu5Ac(a2-6)Gal(b1-4)GlcNAc(b1-3)Gal(b1-3)GlcNAc
# In short: as §1
# [12] = target: Neu5Ac(a2-6)Gal(b1-4)GlcNAc(b1-3)Gal(b1-4)GlcNAc
# In short: as §1
# [13] = target: Neu5Ac(a2-6)Gal(b1-4)GlcNAc(b1-3)Gal(b1-4)GlcNAc(b1-2)Man(a1-3)[Neu5Ac(a2-6)Gal(b1-4)GlcNAc(b1-3)Gal(b1-4)GlcNAc(b1-2)Man(a1-6)]GalNAc
# In short: as §1
# [14] = target: Neu5Ac(a2-6)Gal(b1-4)GlcNAc(b1-3)Gal(b1-4)GlcNAc(b1-3)Gal(b1-4)GlcNAc
# In short: as §1
# [15] = target: Neu5Ac(a2-6)Gal(b1-4)GlcNAc(b1-3)Gal(b1-4)GlcNAc(b1-3)Gal(b1-4)GlcNAc(b1-2)Man(a1-3)[Neu5Ac(a2-6)Gal(b1-4)GlcNAc(b1-3)Gal(b1-4)GlcNAc(b1-3)Gal(b1-4)GlcNAc(b1-2)Man(a1-6)]GalNAc
# In short: as §1
# [16] = target: Neu5Ac(a2-6)Gal(b1-4)GlcNAc(b1-3)Gal(b1-4)GlcNAc(b1-3)GalNAc
# In short: as §1
# [17] = target: Neu5Ac(a2-6)Gal(b1-4)GlcNAc(b1-3)Gal(b1-4)GlcNAc(b1-3)[Neu5Ac(a2-6)Gal(b1-4)GlcNAc(b1-3)Gal(b1-4)GlcNAc(b1-6)]GalNAc
# In short: as §1
# [18] = target: Neu5Ac(a2-6)Gal(b1-4)GlcNAc(b1-3)Gal(b1-4)GlcNAc(b1-6)[Gal(b1-3)]GalNAc
# In short: as §1
# [19] = target: Neu5Ac(a2-6)Gal(b1-4)GlcNAc(b1-3)Gal(b1-4)[Fuc(a1-3)]GlcNAc(b1-3)Gal(b1-4)[Fuc(a1-3)]GlcNAc
# In short: as §1
# [20] = target: Neu5Ac(a2-6)Gal(b1-4)GlcNAc(b1-3)GalNAc
# In short: as §1
# [21] = target: Neu5Ac(a2-6)Gal(b1-4)GlcNAc(b1-3)[Neu5Ac(a2-6)Gal(b1-4)GlcNAc(b1-6)]GalNAc
# In short: as §1
# [22] = target: Neu5Ac(a2-6)Gal(b1-4)GlcNAc(b1-6)GalNAc
# In short: as §1
# [23] = target: Neu5Ac(a2-6)Gal(b1-4)GlcNAc(b1-6)[Gal(b1-3)GlcNAc(b1-3)]Gal(b1-4)Glc
# In short: as §1
# [24] = target: Neu5Ac(a2-6)Gal(b1-4)GlcNAc(b1-6)[Gal(b1-3)]GalNAc
# In short: as §1
# [25] = target: Neu5Ac(a2-6)Gal(b1-4)GlcNAc6S
# In short: as §1
# [26] = target: Neu5Ac(a2-6)GalNAc
# In short: as §1
# [27] = target: Neu5Ac(a2-6)GalNAc(b1-4)GlcNAc
# In short: as §1
# [28] = target: Neu5Ac(a2-6)GalNAc(b1-4)GlcNAc6S
# In short: as §1
# [29] = target: Neu5Ac(a2-6)GlcNAc(b1-4)GlcNAc
# In short: as §1
# [30] = target: Neu5Ac(a2-6)GlcNAc(b1-4)GlcNAc(b1-4)GlcNAc
# In short: as §1
binder,measurement,setting,value
"AntigenI/IIA3VP1 (Streptococcus mutans), C9E3B4 (protein) AANEADYQAKLTAYQTELARVQKANADAKAAYEAAVAANNAANAALTAENTAIKKRNADAKADYEAKLAKYQADLAKYQKDLADYPVKLKAYEDEQASIKAALAELEKHKNEDGNLTEPSAQNLVYDLEPNANLSLTTDGKFLKASAVDDAFSKSTSKAKYDQKILQLDDLDITNLEQSNDVASSMELYGNFGDKAGWSTTVSNNSQVKWGSVLLERGQSATATYTNLQNSYYNGKKISKIVYKYTVDPKSKFQGQKVWLGIFTDPTLGVFASAYTGQVEKNTSIFIKNEFTFYDEDGKPINFDNALLSVASLNREHNSIEMAKDYSGKFVKISGSSIGEKNGMIYATDTLNFKQGEGGSRWTMYKNSQAGSGWDSSDAPNSWYGAGAIKMSGPNNYVTVGATSATNVMPVSDMPVVPGKDNTDGKKPNIWYSLNGKIRAVNVPKVTKEKPTPPVKPTAPTKPTYETEKPLKPAPVAPNYEKEPTPPTRLEHHHHHH",glycan array binding signal (z-score),[1],0.381
same,glycan array binding signal (z-score),[2],-0.329
same,glycan array binding signal (z-score),[3],1.67
same,glycan array binding signal (z-score),[4],-0.28
same,glycan array binding signal (z-score),[5],-1.05
same,glycan array binding signal (z-score),[6],-0.891
same,glycan array binding signal (z-score),[7],-1.13
same,glycan array binding signal (z-score),[8],-0.286
same,glycan array binding signal (z-score),[9],1.05
same,glycan array binding signal (z-score),[10],0.993
same,glycan array binding signal (z-score),[11],-1.1
same,glycan array binding signal (z-score),[12],-0.214
same,glycan array binding signal (z-score),[13],-0.823
same,glycan array binding signal (z-score),[14],-1.17
same,glycan array binding signal (z-score),[15],1.74
same,glycan array binding signal (z-score),[16],-0.349
same,glycan array binding signal (z-score),[17],0.793
same,glycan array binding signal (z-score),[18],0.306
same,glycan array binding signal (z-score),[19],0.247
same,glycan array binding signal (z-score),[20],0.206
same,glycan array binding signal (z-score),[21],-1.08
same,glycan array binding signal (z-score),[22],0.255
same,glycan array binding signal (z-score),[23],-0.28
same,glycan array binding signal (z-score),[24],-1.32
same,glycan array binding signal (z-score),[25],1.06
same,glycan array binding signal (z-score),[26],-0.371
same,glycan array binding signal (z-score),[27],-1.17
same,glycan array binding signal (z-score),[28],-0.77
same,glycan array binding signal (z-score),[29],-0.598
same,glycan array binding signal (z-score),[30],-0.713

# An excerpt of these results, with tabs.
binder	measurement	setting	value
AntigenI/IIA3VP1 (Streptococcus mutans), C9E3B4 (protein) AANEADYQAKLTAYQTELARVQKANADAKAAYEAAVAANNAANAALTAENTAIKKRNADAKADYEAKLAKYQADLAKYQKDLADYPVKLKAYEDEQASIKAALAELEKHKNEDGNLTEPSAQNLVYDLEPNANLSLTTDGKFLKASAVDDAFSKSTSKAKYDQKILQLDDLDITNLEQSNDVASSMELYGNFGDKAGWSTTVSNNSQVKWGSVLLERGQSATATYTNLQNSYYNGKKISKIVYKYTVDPKSKFQGQKVWLGIFTDPTLGVFASAYTGQVEKNTSIFIKNEFTFYDEDGKPINFDNALLSVASLNREHNSIEMAKDYSGKFVKISGSSIGEKNGMIYATDTLNFKQGEGGSRWTMYKNSQAGSGWDSSDAPNSWYGAGAIKMSGPNNYVTVGATSATNVMPVSDMPVVPGKDNTDGKKPNIWYSLNGKIRAVNVPKVTKEKPTPPVKPTAPTKPTYETEKPLKPAPVAPNYEKEPTPPTRLEHHHHHH	glycan array binding signal (z-score)	[12]	-0.214
same	glycan array binding signal (z-score)	[18]	0.306
